Data as given in PubChem BioAssay AID1671195 (Yale University, 2021).
The deposit covers about 22,000 reagents; below is an unselected part. In the full data, about 1,510 (6.9%) got an active call. 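Active includes knockdowns raising or lowering LDL uptake; positive z-scores mean more uptake, negative mean less.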 Reagent sequences are not shown.

Purpose: 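Genes whose knockdown alters LDL uptake in liver cancer cells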 (primary screen)
Cell system: human Huh7 hepatoma cells
Reagent: siRNA pool against human genes, 18 nM
Timing: about 2 to 2.5 days of knockdown, then 8 h LDL uptake
Challenge: DiI-labelled LDL at 30 µg/ml for 8 h, in lipoprotein-deficient serum medium
Measured: 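Per-cell DiI-LDL intensity by automated imaging; well means scaled to the plate median and given as a robust z-score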
Reading the numbers: robust z-score: higher = more LDL uptake after knockdown
Rule for the call: 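a gene counts as active if at least two replicate z-scores exceed ±2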

With knock-down of TRAM2 [SID442884265], the record shows robust z-score, replicate 1 = -0.74; robust z-score, replicate 2 = -1.87; robust z-score, replicate 3 = -2.27; active.
With knock-down of NME9 [SID442894817] the results were robust z-score, replicate 1 = -0.0517; robust z-score, replicate 2 = -0.526; robust z-score, replicate 3 = 0.267; inactive.
Against ZNF786 [SID442903038], the entry reads robust z-score, replicate 1 = -1.21; robust z-score, replicate 2 = -1.43; robust z-score, replicate 3 = -0.964; inactive.
ATOH7 [SID442900178] showed robust z-score, replicate 1 = -0.822; robust z-score, replicate 2 = -0.736; robust z-score, replicate 3 = -0.616; inactive.
Against HAND2-AS1 [SID442884466], the values are robust z-score, replicate 1 = -2.31; robust z-score, replicate 2 = -2.17; robust z-score, replicate 3 = -2.05; active.
With knock-down of EARS2 [SID442885237] the results were robust z-score, replicate 1 = 1.77; robust z-score, replicate 2 = 1.79; robust z-score, replicate 3 = 1.27; inactive.
Depletion of LOC389695 (retired record) [SID442888100] resulted in: robust z-score, replicate 1 = 0.64; robust z-score, replicate 2 = 1.4; robust z-score, replicate 3 = 0.306; inactive.
For GPR180 [SID442883633], the entry reads robust z-score, replicate 1 = 3.12; robust z-score, replicate 2 = 2.59; robust z-score, replicate 3 = 1.9; active.
With knock-down of USB1 [SID442903091] the results were robust z-score, replicate 1 = -1.17; robust z-score, replicate 2 = -1.24; robust z-score, replicate 3 = -1.24; inactive.
Silencing of PRAG1 [SID442896635] gave: robust z-score, replicate 1 = -0.2; robust z-score, replicate 2 = -0.215; robust z-score, replicate 3 = -0.469; inactive.
Against ZNF385A [SID442890958], the values are robust z-score, replicate 1 = 0.57; robust z-score, replicate 2 = 0.0557; robust z-score, replicate 3 = 0.42; inactive.
Against LINC01018 [SID442896366], the values are robust z-score, replicate 1 = -0.279; robust z-score, replicate 2 = -0.275; robust z-score, replicate 3 = -0.24; inactive.
Knock-down of ZNF471 [SID442883877] resulted in: robust z-score, replicate 1 = 2.03; robust z-score, replicate 2 = 2.69; robust z-score, replicate 3 = 1.9; active.
PRC1 [SID442889722] scored robust z-score, replicate 1 = 1.3; robust z-score, replicate 2 = 0.535; robust z-score, replicate 3 = -0.286; inactive.
Against RAE1 [SID442899373] the deposit lists robust z-score, replicate 1 = -0.861; robust z-score, replicate 2 = -0.733; robust z-score, replicate 3 = -0.239; inactive.
ZNF454 [SID442886795] showed robust z-score, replicate 1 = 0.859; robust z-score, replicate 2 = 0.997; robust z-score, replicate 3 = 1.33; inactive.
After knock-down of SEPTIN12 [SID442892890] the results were robust z-score, replicate 1 = -0.481; robust z-score, replicate 2 = 0.304; robust z-score, replicate 3 = 0.517; inactive.
With knock-down of CLCA4 [SID442894448] the results were robust z-score, replicate 1 = 0.0541; robust z-score, replicate 2 = -0.67; robust z-score, replicate 3 = 0.422; inactive.
RPL35P7 [SID442901782] gave robust z-score, replicate 1 = -0.902; robust z-score, replicate 2 = -0.879; robust z-score, replicate 3 = -1.1; inactive.
After knock-down of SRSF8 [SID442887879], the record shows robust z-score, replicate 1 = 0.698; robust z-score, replicate 2 = 1.18; robust z-score, replicate 3 = 0.594; inactive.
LINC01994 [SID442895638] gave robust z-score, replicate 1 = -0.159; robust z-score, replicate 2 = -0.264; robust z-score, replicate 3 = -0.144; inactive.
With knock-down of TACR3 [SID442893745], the screen gave robust z-score, replicate 1 = 0.562; robust z-score, replicate 2 = -1.04; robust z-score, replicate 3 = 0.526; inactive.
Silencing of TRMT2B [SID442888910] came out at: robust z-score, replicate 1 = 1.01; robust z-score, replicate 2 = 0.373; robust z-score, replicate 3 = 0.54; inactive.
After knock-down of OR4C15 [SID442901634], the screen gave robust z-score, replicate 1 = -0.725; robust z-score, replicate 2 = -0.959; robust z-score, replicate 3 = -1.11; inactive.
RCN1 [SID442903793] gave robust z-score, replicate 1 = -1.49; robust z-score, replicate 2 = -1.37; robust z-score, replicate 3 = -1.32; inactive.
With knock-down of C16orf54 [SID442889226], the record shows robust z-score, replicate 1 = 0.52; robust z-score, replicate 2 = 0.745; robust z-score, replicate 3 = 0.514; inactive.
EFNA4 [SID442895950] gave robust z-score, replicate 1 = -0.2; robust z-score, replicate 2 = 0.106; robust z-score, replicate 3 = -0.576; inactive.
After knock-down of BLOC1S4 [SID442891838], the record shows robust z-score, replicate 1 = 0.222; robust z-score, replicate 2 = 0.248; robust z-score, replicate 3 = 0.247; inactive.
For H3C8 [SID442887267], the entry reads robust z-score, replicate 1 = 0.743; robust z-score, replicate 2 = 1.07; robust z-score, replicate 3 = 1.04; inactive.
Against LOC440524 (retired record) [SID442884544] the deposit lists robust z-score, replicate 1 = -2.36; robust z-score, replicate 2 = -2.48; robust z-score, replicate 3 = -2.37; active.
